The results in this text go back to paper PMC10644093.

Amino acid sequences for entries named in this document (tags omitted). Residues count along the entry.
UniProt P9WGT7, residues 23-370: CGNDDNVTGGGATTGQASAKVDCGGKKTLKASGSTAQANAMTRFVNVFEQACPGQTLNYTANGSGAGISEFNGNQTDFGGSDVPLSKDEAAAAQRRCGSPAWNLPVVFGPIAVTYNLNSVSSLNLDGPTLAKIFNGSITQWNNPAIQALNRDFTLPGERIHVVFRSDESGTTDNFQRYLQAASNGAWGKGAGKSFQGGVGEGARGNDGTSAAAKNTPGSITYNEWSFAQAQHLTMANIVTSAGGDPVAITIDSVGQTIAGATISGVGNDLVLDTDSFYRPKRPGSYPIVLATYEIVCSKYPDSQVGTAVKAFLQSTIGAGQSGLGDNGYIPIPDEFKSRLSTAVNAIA
UniProt P21796: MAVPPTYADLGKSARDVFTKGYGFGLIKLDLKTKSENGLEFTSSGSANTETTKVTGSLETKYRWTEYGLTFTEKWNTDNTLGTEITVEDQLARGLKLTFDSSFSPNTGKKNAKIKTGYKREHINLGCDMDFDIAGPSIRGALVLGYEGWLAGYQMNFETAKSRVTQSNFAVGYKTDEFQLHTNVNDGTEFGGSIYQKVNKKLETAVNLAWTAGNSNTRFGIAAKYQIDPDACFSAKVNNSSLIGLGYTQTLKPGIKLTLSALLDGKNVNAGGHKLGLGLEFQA

Results are given in words; binding and its absence hold for the method and conditions named. Binding seen in cells or lysates may run through a third protein.

In this test the target is HA-tagged Mycobacterium tuberculosis Rv0928 protein (pHA-Rv0928) (Mycobacterium tuberculosis H37Rv) (UniProt P9WGT7). The test can be described thus: co-IP.

Take “voltage-dependent anion channel 1 (VDAC1) (from UniProt P21796 1-283)”: the binding result was “no binding”.
